Results from the supplement of paper PMC8728848.
Some of the results follow.

Key:
Assay in all cases: glycan array binding signal (z-score within array); higher = stronger binding
Settings in all cases: glycan notation: IUPAC condensed, linker removed
Fuc(a1-2)Gal = biological target: Fuc(a1-2)Gal
Summary of the method: (§1)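 From the Consortium for Functional Glycomics database, 3228 arrays were curated, keeping only those whose protein sequence was available. Binding is given as a within-array Z-score averaged across arrays sharing a protein sequence and across linkers. Negative Z-scores can be read as non-binding.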

Fuc(a1-2)Gal(b1-3)GalNAc = biological target: Fuc(a1-2)Gal(b1-3)GalNAc
Summary of the method: as §1

[1] = biological target: Fuc(a1-2)Gal(b1-3)GalNAc(b1-3)Gal
Summary of the method: as §1

[2] = biological target: Fuc(a1-2)Gal(b1-3)GalNAc(b1-3)Gal(a1-4)Gal(b1-4)Glc
Summary of the method: as §1

[3] = biological target: Fuc(a1-2)Gal(b1-3)GalNAc(b1-4)[Neu5Ac(a2-3)]Gal(b1-4)Glc
Summary of the method: as §1

Fuc(a1-2)Gal(b1-3)GlcNAc = biological target: Fuc(a1-2)Gal(b1-3)GlcNAc
Summary of the method: as §1

[4] = biological target: Fuc(a1-2)Gal(b1-3)GlcNAc(b1-3)Gal(b1-4)Glc
Summary of the method: as §1

[5] = biological target: Fuc(a1-2)Gal(b1-3)[Fuc(a1-4)]GlcNAc
Summary of the method: as §1

Fuc(a1-2)Gal(b1-4)Glc = biological target: Fuc(a1-2)Gal(b1-4)Glc
Summary of the method: as §1

Fuc(a1-2)Gal(b1-4)Glc6S = biological target: Fuc(a1-2)Gal(b1-4)Glc6S
Summary of the method: as §1

Fuc(a1-2)Gal(b1-4)GlcNAc = biological target: Fuc(a1-2)Gal(b1-4)GlcNAc
Summary of the method: as §1

[6] = biological target: Fuc(a1-2)Gal(b1-4)GlcNAc(b1-3)Gal(b1-4)GlcNAc
Summary of the method: as §1

[7] = biological target: Fuc(a1-2)Gal(b1-4)GlcNAc(b1-3)Gal(b1-4)GlcNAc(b1-3)Gal(b1-4)GlcNAc
Summary of the method: as §1

[8] = biological target: Fuc(a1-2)Gal(b1-4)GlcNAc6S
Summary of the method: as §1

[9] = biological target: Fuc(a1-2)Gal(b1-4)[Fuc(a1-3)]GlcNAc
Summary of the method: as §1

[10] = biological target: Fuc(a1-2)Gal(b1-4)[Fuc(a1-3)]GlcNAc(b1-3)Gal(b1-4)[Fuc(a1-3)]GlcNAc
Summary of the method: as §1

[11] = biological target: Fuc(a1-2)Gal(b1-4)[Fuc(a1-3)]GlcNAc(b1-3)Gal(b1-4)[Fuc(a1-3)]GlcNAc(b1-3)Gal(b1-4)[Fuc(a1-3)]GlcNAc
Summary of the method: as §1

Fuc(a1-2)Gal6S(b1-4)Glc = biological target: Fuc(a1-2)Gal6S(b1-4)Glc
Summary of the method: as §1

[12] = biological target: Fuc(a1-2)Gal6S(b1-4)Glc6S
Summary of the method: as §1

[13] = biological target: Fuc(a1-2)Gal6S(b1-4)GlcNAc
Summary of the method: as §1

Fuc(a1-2)[Gal(a1-3)]Gal = biological target: Fuc(a1-2)[Gal(a1-3)]Gal
Summary of the method: as §1

[14] = biological target: Fuc(a1-2)[Gal(a1-3)]Gal(b1-3)GlcNAc
Summary of the method: as §1

[15] = biological target: Fuc(a1-2)[Gal(a1-3)]Gal(b1-4)Glc
Summary of the method: as §1

[16] = biological target: Fuc(a1-2)[Gal(a1-3)]Gal(b1-4)GlcNAc
Summary of the method: as §1

[17] = biological target: Fuc(a1-2)[Gal(a1-3)]Gal(b1-4)[Fuc(a1-3)]GlcNAc
Summary of the method: as §1

[18] = biological target: Fuc(a1-2)[Gal(a1-4)]Gal(b1-4)GlcNAc
Summary of the method: as §1

[19] = biological target: Fuc(a1-2)[GalNAc(a1-3)]Gal
Summary of the method: as §1

[20] = biological target: Fuc(a1-2)[GalNAc(a1-3)]Gal(b1-3)GlcNAc
Summary of the method: as §1

[21] = biological target: Fuc(a1-2)[GalNAc(a1-3)]Gal(b1-4)Glc
Summary of the method: as §1

[22] = biological target: Fuc(a1-2)[GalNAc(a1-3)]Gal(b1-4)GlcNAc
Summary of the method: as §1

[23] = biological target: Fuc(a1-2)[GalNAc(a1-3)]Gal(b1-4)[Fuc(a1-3)]GlcNAc
Summary of the method: as §1

[24] = biological target: Fuc(a1-2)[GalNAc(a1-4)]Gal(b1-4)GlcNAc
Summary of the method: as §1

[25] = biological target: Fuc(a1-2)[GalNAc(b1-3)]Gal
Summary of the method: as §1

Fuc(a1-3)GlcNAc = biological target: Fuc(a1-3)GlcNAc
Summary of the method: as §1

[26] = biological target: Fuc(a1-3)[Gal(b1-4)]Glc6S
Summary of the method: as §1

[27] = biological target: Fuc(a1-3)[Gal(b1-4)]GlcNAc
Summary of the method: as §1

[28] = biological target: Fuc(a1-3)[Gal(b1-4)]GlcNAc(b1-3)Gal(b1-3)[Fuc(a1-4)]GlcNAc
Summary of the method: as §1

[29] = biological target: Fuc(a1-3)[Gal(b1-4)]GlcNAc(b1-4)Gal(b1-4)[Fuc(a1-3)]GlcNAc
Summary of the method: as §1

[30] = biological target: Fuc(a1-3)[Gal(b1-4)]GlcNAc(b1-4)Gal(b1-4)[Fuc(a1-3)]GlcNAc(b1-4)Gal(b1-4)[Fuc(a1-3)]GlcNAc
Summary of the method: as §1

[31] = biological target: Fuc(a1-3)[Gal(b1-4)]GlcNAc6S
Summary of the method: as §1

[32] = biological target: Fuc(a1-3)[Gal3S(b1-4)]Glc6S
Summary of the method: as §1

[33] = biological target: Fuc(a1-3)[Gal3S(b1-4)]GlcNAc
Summary of the method: as §1

[34] = biological target: Fuc(a1-3)[Gal3S(b1-4)]GlcNAc6S
Summary of the method: as §1

[35] = biological target: Fuc(a1-3)[GalNAc(b1-4)]GlcNAc
Summary of the method: as §1

Fuc(a1-4)GlcNAc = biological target: Fuc(a1-4)GlcNAc
Summary of the method: as §1

Fuc(b1-3)GlcNAc = biological target: Fuc(b1-3)GlcNAc
Summary of the method: as §1

Gal(a1-2)Gal = biological target: Gal(a1-2)Gal
Summary of the method: as §1

Gal(a1-3)Gal = biological target: Gal(a1-3)Gal
Summary of the method: as §1

Gal(a1-3)Gal(b1-3)GlcNAc = biological target: Gal(a1-3)Gal(b1-3)GlcNAc
Summary of the method: as §1

Gal(a1-3)Gal(b1-4)Glc = biological target: Gal(a1-3)Gal(b1-4)Glc
Summary of the method: as §1

Gal(a1-3)Gal(b1-4)GlcNAc = biological target: Gal(a1-3)Gal(b1-4)GlcNAc
Summary of the method: as §1

[36] = biological target: Gal(a1-3)Gal(b1-4)[Fuc(a1-3)]GlcNAc
Summary of the method: as §1

Gal(a1-3)GalNAc = biological target: Gal(a1-3)GalNAc
Summary of the method: as §1

[37] = biological target: Gal(a1-3)[Gal(a1-4)]Gal(b1-4)GlcNAc
Summary of the method: as §1

Gal(a1-4)Gal(b1-4)Glc = biological target: Gal(a1-4)Gal(b1-4)Glc
Summary of the method: as §1

Gal(a1-4)Gal(b1-4)GlcNAc = biological target: Gal(a1-4)Gal(b1-4)GlcNAc
Summary of the method: as §1

Gal(a1-4)GlcNAc = biological target: Gal(a1-4)GlcNAc
Summary of the method: as §1

Gal(a1-6)Glc = biological target: Gal(a1-6)Glc
Summary of the method: as §1

Gal(b1-2)Gal = biological target: Gal(b1-2)Gal
Summary of the method: as §1

Gal(b1-3)Gal = biological target: Gal(b1-3)Gal
Summary of the method: as §1

B1: M6PR (Bos taurus), P11456 (protein)
chain: MMSPLHSSWRTGLLLLLLFSVAVRESWQTEEKTCDLVGEKGKESEKELALLKRLTPLFNKSFESTVGQSPDMYSYVFRVCREAGNHSSGAGLVQINKSNGKETVVGRFNETQIFNGSNWIMLIYKGGDEYDNHCGREQRRAVVMISCNRHTLADNFN
glycan array binding signal (z-score) (Fuc(a1-2)Gal): -0.18 | glycan array binding signal (z-score) (Fuc(a1-2)Gal(b1-3)GalNAc): 0.215 | glycan array binding signal (z-score) [1]: 0.114 | glycan array binding signal (z-score) [2]: 0.014 | glycan array binding signal (z-score) [3]: 2.76 | glycan array binding signal (z-score) (Fuc(a1-2)Gal(b1-3)GlcNAc): -0.189 | glycan array binding signal (z-score) [4]: -0.429 | glycan array binding signal (z-score) [5]: 0.201 | glycan array binding signal (z-score) (Fuc(a1-2)Gal(b1-4)Glc): -0.153 | glycan array binding signal (z-score) (Fuc(a1-2)Gal(b1-4)Glc6S): -0.679 | glycan array binding signal (z-score) (Fuc(a1-2)Gal(b1-4)GlcNAc): 0.724 | glycan array binding signal (z-score) [6]: 0.062 | glycan array binding signal (z-score) [7]: 0.026 | glycan array binding signal (z-score) [8]: -0.681 | glycan array binding signal (z-score) [9]: 0.437 | glycan array binding signal (z-score) [10]: -0.237 | glycan array binding signal (z-score) [11]: 0.021 | glycan array binding signal (z-score) (Fuc(a1-2)Gal6S(b1-4)Glc): -0.506 | glycan array binding signal (z-score) [12]: -0.512 | glycan array binding signal (z-score) [13]: -0.21 | glycan array binding signal (z-score) (Fuc(a1-2)[Gal(a1-3)]Gal): -0.265 | glycan array binding signal (z-score) [14]: -0.012 | glycan array binding signal (z-score) [15]: 0.109 | glycan array binding signal (z-score) [16]: 0.078 | glycan array binding signal (z-score) [17]: 0.725 | glycan array binding signal (z-score) [18]: 0.223 | glycan array binding signal (z-score) [19]: -0.021 | glycan array binding signal (z-score) [20]: 0.249 | glycan array binding signal (z-score) [21]: -0.153 | glycan array binding signal (z-score) [22]: 0.327 | glycan array binding signal (z-score) [23]: 0.578 | glycan array binding signal (z-score) [24]: -0.255 | glycan array binding signal (z-score) [25]: 0.283 | glycan array binding signal (z-score) (Fuc(a1-3)GlcNAc): -0.026 | glycan array binding signal (z-score) [26]: -0.511 | glycan array binding signal (z-score) [27]: -0.422 | glycan array binding signal (z-score) [28]: -0.648 | glycan array binding signal (z-score) [29]: -0.282 | glycan array binding signal (z-score) [30]: -0.375 | glycan array binding signal (z-score) [31]: -0.828 | glycan array binding signal (z-score) [32]: -0.34 | glycan array binding signal (z-score) [33]: -0.167 | glycan array binding signal (z-score) [34]: -0.421 | glycan array binding signal (z-score) [35]: -0.338 | glycan array binding signal (z-score) (Fuc(a1-4)GlcNAc): -0.026 | glycan array binding signal (z-score) (Fuc(b1-3)GlcNAc): 0.075 | glycan array binding signal (z-score) (Gal(a1-2)Gal): 0.848 | glycan array binding signal (z-score) (Gal(a1-3)Gal): 0.308 | glycan array binding signal (z-score) (Gal(a1-3)Gal(b1-3)GlcNAc): 0.409 | glycan array binding signal (z-score) (Gal(a1-3)Gal(b1-4)Glc): -0.13 | glycan array binding signal (z-score) (Gal(a1-3)Gal(b1-4)GlcNAc): -0.036 | glycan array binding signal (z-score) [36]: 0.296 | glycan array binding signal (z-score) (Gal(a1-3)GalNAc): 0.8 | glycan array binding signal (z-score) [37]: -0.029 | glycan array binding signal (z-score) (Gal(a1-4)Gal(b1-4)Glc): 0.066 | glycan array binding signal (z-score) (Gal(a1-4)Gal(b1-4)GlcNAc): -0.101 | glycan array binding signal (z-score) (Gal(a1-4)GlcNAc): 0.561 | glycan array binding signal (z-score) (Gal(a1-6)Glc): 0.436 | glycan array binding signal (z-score) (Gal(b1-2)Gal): 0.315 | glycan array binding signal (z-score) (Gal(b1-3)Gal): -0.131
